Assay results as given in publication PMC9674300.
These are yes or no findings as the source states them, for the method shown. In cells and extracts the contact can be indirect. Some binding calls cover weakened binding; strength is not graded here. Tags and fused reporters may be left off the sequences shown.

T1: Sema3B-GFP (endogenous Sema3B fused at its N terminus to enhanced green fluorescent protein, Sema3B-GFP knock-in mouse) (mouse (endogenous in the Sema3B-GFP knock-in line)) (UniProt Q62177)
T1 sequence: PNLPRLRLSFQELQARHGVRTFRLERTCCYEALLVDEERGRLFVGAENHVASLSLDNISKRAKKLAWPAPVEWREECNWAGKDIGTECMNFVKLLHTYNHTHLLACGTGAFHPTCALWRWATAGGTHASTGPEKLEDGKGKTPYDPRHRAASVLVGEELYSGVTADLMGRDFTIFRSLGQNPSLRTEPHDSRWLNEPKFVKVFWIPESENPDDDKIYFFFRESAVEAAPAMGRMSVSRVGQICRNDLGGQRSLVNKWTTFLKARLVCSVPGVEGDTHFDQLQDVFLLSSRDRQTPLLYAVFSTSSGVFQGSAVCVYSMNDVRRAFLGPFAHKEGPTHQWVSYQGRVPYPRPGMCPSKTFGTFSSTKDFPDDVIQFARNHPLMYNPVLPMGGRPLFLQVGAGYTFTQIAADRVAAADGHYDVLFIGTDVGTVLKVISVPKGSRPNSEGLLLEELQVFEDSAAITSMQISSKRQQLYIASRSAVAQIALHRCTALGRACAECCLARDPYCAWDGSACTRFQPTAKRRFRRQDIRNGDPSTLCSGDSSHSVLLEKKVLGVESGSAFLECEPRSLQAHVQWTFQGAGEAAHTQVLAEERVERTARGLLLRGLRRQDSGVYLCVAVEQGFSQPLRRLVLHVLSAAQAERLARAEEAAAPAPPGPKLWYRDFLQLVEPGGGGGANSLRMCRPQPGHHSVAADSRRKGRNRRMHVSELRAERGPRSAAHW


Target: T1, Sema3B-GFP (endogenous Sema3B fused at its N terminus to enhanced green fluorescent protein, Sema3B-GFP knock-in mouse) (mouse (endogenous in the Sema3B-GFP knock-in line))
Assay: co-IP; CSF of E13.5 Sema3B-GFP ki embryos (WT CSF as control of specificity); rabbit anti-GFP overnight at 4°C, magnetic protein A beads 15 min at RT; Western blot against Nrp1 or Nrp2

| binding | Binder |
| --- | --- |
| binds weakly | Nrp1, soluble forms in the embryonic cerebrospinal fluid (receptor, UniProt P97333 22-856) FRSDKCGGTIKIENPGYLTSPGYPHSYHPSEKCEWLIQAPEPYQRIMINFNPHFDLEDRDCKYDYVEVIDGENEGGRLWGKFCGKIAPSPVVSSGPFLFIKFVSDYETHGAGFSIRYEIFKRGPECSQNYTAPTGVIKSPGFPEKYPNSLECTYIIFAPKMSEIILEFESFDLEQDSNPPGGMFCRYDRLEIWDGFPEVGPHIGRYCGQKTPGRIRSSSGVLSMVFYTDSAIAKEGFSANYSVLQSSISEDFKCMEALGMESGEIHSDQITASSQYGTNWSVERSRLNYPENGWTPGEDSYKEWIQVDLGLLRFVTAVGTQGAISKETKKKYYVKTYRVDISSNGEDWISLKEGNKAIIFQGNTNPTDVVLGVFSKPLITRFVRIKPVSWETGISMRFEVYGCKITDYPCSGMLGMVSGLISDSQITASNQADRNWMPENIRLVTSRTGWALPPSPHPYTNEWLQVDLGDEKIVRGVIIQGGKHRENKVFMRKFKIAYSNNGSDWKTIMDDSKRKAKSFEGNNNYDTPELRTFSPLSTRFIRIYPERATHSGLGLRMELLGCEVEAPTAGPTTPNGNPVDECDDDQANCHSGTGDDFQLTGGTTVLATEKPTIIDSTIQSEFPTYGFNCEFGWGSHKTFCHWEHDSHAQLRWSVLTSKTGPIQDHTGDGNFIYSQADENQKGKVARLVSPVVYSQSSAHCMTFWYHMSGSHVGTLRVKLRYQKPEEYDQLVWMVVGHQGDHWKEGRVLLHKSLKLYQVIFEGEIGKGNLGGIAVDDISINNHISQEDCAKPTDLDKKNTEIKIDETGSTPGYEGEGEGDKNISRKPGNVLKTLDP |
| binds | Nrp2, soluble forms in the embryonic cerebrospinal fluid (receptor, UniProt O35375 21-864) RSQQDPPCGGRLNSKDAGYITSPGYPQDYPSHQNCEWIVYAPEPNQKIVLNFNPHFEIEKHDCKYDFIEIRDGDSESADLLGKHCGNIAPPTIISSGSVLYIKFTSDYARQGAGFSLRYEIFKTGSEDCSKNFTSPNGTIESPGFPEKYPHNLDCTFTILAKPRMEIILQFLTFDLEHDPLQVGEGDCKYDWLDIWDGIPHVGPLIGKYCGTKTPSKLRSSTGILSLTFHTDMAVAKDGFSARYYLIHQEPPENFQCNVPLGMESGRIANEQISASSTFSDGRWTPQQSRLHGDDNGWTPNLDSNKEYLQVDLRFLTMLTAIATQGAISRETQKGYYVKSYKLEVSTNGEDWMVYRHGKNHKIFQANNDATEVVLNKLHMPLLTRFIRIRPQTWHLGIALRLELFGCRVTDAPCSNMLGMLSGLIADTQISASSTREYLWSPSAARLVSSRSGWFPRNPQAQPGEEWLQVDLGTPKTVKGVIIQGARGGDSITAVEARAFVRKFKVSYSLNGKDWEYIQDPRTQQTKLFEGNMHYDTPDIRRFDPVPAQYVRVYPERWSPAGIGMRLEVLGCDWTDSKPTVETLGPTVKSEETTTPYPMDEDATECGENCSFEDDKDLQLPSGFNCNFDFPEETCGWVYDHAKWLRSTWISSANPNDRTFPDDKNFLKLQSDGRREGQYGRLISPPVHLPRSPVCMEFQYQAMGGHGVALQVVREASQESKLLWVIREDQGSEWKHGRIILPSYDMEYQIVFEGVIGKGRSGEISIDDIRISTDVPLENCMEPISAFAGEDFKVDIPETHGGEGYEDEIDDEYEGDWSNSSSSTSGAGDPSSGKEKSWLYTLDP |
